This data set can be described thus: in vivo. As to conditions: mouse, blood, po, 100 mg/kg.

For the compound `CC1=C(C(=O)O)N2C(=O)[C@@H](NC(=O)[C@H](N)c3ccccc3)[C@H]2SC1` [Cephalexin Monohydrate, reference compound], the concentration at 1 h was 26900 ng/mL, the concentration at 2 h stood at 8500 ng/mL and the concentration at 3.5 h was less than 4600 ng/mL.
